# Data published in the supplement of paper PMC10849652.
# Chains of the proteins cited; added tags and fusions are not shown. Lines headed by an entry give the natural chain unless they say otherwise; changes in a name come on top.
# UniProt Q96A72, whole entry, looked up: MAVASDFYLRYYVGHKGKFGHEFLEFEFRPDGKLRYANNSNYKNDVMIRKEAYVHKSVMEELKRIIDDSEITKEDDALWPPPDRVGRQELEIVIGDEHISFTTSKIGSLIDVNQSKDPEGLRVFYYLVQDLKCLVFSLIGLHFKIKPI
# UniProt Q96GW9: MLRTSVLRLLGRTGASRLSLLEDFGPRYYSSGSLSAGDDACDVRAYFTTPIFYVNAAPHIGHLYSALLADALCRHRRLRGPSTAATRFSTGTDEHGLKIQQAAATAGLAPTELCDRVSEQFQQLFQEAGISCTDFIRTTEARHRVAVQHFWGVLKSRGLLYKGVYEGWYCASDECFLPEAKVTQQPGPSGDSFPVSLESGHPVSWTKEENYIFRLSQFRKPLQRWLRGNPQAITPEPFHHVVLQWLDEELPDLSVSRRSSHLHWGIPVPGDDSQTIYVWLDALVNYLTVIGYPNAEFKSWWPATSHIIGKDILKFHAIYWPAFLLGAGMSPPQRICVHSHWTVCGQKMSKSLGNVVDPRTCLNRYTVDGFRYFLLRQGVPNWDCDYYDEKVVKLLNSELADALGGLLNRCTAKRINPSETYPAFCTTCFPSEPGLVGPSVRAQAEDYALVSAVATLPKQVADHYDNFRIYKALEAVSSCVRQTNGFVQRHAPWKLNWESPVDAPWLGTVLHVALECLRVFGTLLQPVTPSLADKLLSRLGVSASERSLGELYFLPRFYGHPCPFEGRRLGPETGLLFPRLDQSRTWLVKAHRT
# UniProt P56192: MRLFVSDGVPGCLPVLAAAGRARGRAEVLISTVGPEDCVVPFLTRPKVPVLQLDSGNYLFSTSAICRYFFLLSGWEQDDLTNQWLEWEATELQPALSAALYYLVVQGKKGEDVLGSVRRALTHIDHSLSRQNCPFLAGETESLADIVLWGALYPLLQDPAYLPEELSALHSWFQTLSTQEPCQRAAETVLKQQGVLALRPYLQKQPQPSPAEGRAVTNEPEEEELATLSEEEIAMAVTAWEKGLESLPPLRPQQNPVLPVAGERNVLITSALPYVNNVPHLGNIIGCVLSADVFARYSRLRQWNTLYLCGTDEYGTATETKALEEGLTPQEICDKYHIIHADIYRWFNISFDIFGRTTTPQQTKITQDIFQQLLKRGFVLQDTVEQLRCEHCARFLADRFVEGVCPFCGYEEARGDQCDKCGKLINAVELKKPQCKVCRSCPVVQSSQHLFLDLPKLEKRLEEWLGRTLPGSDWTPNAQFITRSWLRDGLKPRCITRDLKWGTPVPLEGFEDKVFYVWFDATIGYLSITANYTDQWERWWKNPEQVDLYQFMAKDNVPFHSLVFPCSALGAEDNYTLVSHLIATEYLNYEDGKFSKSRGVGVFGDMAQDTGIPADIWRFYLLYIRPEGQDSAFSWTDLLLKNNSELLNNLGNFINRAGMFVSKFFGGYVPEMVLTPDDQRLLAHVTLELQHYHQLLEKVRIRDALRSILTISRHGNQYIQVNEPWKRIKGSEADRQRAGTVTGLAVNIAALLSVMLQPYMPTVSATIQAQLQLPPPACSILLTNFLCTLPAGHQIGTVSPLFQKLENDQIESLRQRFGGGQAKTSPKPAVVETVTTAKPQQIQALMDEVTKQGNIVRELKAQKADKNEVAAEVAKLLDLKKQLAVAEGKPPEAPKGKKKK
# UniProt P49006: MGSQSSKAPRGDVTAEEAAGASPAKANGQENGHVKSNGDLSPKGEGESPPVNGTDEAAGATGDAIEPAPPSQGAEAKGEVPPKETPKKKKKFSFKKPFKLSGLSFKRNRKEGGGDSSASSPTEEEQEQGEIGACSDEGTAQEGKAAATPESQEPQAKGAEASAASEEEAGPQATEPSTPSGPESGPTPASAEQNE
# UniProt Q9UI95, whole entry, looked up: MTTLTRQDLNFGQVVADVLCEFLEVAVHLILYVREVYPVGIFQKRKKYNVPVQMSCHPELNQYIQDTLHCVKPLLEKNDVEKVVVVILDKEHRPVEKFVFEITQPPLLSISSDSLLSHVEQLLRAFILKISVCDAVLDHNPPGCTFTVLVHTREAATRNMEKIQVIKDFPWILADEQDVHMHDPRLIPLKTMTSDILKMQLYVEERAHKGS
# UniProt P53778: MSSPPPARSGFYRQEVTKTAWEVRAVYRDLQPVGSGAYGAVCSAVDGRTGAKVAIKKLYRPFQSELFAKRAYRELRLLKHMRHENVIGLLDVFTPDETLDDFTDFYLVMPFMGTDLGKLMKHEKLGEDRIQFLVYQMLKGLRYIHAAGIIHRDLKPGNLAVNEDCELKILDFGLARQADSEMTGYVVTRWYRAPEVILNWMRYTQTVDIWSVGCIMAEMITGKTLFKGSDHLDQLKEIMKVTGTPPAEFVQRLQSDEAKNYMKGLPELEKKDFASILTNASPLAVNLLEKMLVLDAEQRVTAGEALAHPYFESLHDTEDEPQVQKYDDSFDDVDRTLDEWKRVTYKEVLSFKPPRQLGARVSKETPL
# UniProt Q8WWC4: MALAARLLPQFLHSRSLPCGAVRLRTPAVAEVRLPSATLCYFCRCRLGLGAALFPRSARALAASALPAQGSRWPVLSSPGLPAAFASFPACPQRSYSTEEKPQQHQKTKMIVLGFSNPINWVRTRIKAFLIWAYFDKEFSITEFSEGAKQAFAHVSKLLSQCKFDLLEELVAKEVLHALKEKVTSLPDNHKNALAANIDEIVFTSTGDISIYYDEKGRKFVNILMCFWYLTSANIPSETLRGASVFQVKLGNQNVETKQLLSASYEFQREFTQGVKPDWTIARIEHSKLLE
# UniProt P78559: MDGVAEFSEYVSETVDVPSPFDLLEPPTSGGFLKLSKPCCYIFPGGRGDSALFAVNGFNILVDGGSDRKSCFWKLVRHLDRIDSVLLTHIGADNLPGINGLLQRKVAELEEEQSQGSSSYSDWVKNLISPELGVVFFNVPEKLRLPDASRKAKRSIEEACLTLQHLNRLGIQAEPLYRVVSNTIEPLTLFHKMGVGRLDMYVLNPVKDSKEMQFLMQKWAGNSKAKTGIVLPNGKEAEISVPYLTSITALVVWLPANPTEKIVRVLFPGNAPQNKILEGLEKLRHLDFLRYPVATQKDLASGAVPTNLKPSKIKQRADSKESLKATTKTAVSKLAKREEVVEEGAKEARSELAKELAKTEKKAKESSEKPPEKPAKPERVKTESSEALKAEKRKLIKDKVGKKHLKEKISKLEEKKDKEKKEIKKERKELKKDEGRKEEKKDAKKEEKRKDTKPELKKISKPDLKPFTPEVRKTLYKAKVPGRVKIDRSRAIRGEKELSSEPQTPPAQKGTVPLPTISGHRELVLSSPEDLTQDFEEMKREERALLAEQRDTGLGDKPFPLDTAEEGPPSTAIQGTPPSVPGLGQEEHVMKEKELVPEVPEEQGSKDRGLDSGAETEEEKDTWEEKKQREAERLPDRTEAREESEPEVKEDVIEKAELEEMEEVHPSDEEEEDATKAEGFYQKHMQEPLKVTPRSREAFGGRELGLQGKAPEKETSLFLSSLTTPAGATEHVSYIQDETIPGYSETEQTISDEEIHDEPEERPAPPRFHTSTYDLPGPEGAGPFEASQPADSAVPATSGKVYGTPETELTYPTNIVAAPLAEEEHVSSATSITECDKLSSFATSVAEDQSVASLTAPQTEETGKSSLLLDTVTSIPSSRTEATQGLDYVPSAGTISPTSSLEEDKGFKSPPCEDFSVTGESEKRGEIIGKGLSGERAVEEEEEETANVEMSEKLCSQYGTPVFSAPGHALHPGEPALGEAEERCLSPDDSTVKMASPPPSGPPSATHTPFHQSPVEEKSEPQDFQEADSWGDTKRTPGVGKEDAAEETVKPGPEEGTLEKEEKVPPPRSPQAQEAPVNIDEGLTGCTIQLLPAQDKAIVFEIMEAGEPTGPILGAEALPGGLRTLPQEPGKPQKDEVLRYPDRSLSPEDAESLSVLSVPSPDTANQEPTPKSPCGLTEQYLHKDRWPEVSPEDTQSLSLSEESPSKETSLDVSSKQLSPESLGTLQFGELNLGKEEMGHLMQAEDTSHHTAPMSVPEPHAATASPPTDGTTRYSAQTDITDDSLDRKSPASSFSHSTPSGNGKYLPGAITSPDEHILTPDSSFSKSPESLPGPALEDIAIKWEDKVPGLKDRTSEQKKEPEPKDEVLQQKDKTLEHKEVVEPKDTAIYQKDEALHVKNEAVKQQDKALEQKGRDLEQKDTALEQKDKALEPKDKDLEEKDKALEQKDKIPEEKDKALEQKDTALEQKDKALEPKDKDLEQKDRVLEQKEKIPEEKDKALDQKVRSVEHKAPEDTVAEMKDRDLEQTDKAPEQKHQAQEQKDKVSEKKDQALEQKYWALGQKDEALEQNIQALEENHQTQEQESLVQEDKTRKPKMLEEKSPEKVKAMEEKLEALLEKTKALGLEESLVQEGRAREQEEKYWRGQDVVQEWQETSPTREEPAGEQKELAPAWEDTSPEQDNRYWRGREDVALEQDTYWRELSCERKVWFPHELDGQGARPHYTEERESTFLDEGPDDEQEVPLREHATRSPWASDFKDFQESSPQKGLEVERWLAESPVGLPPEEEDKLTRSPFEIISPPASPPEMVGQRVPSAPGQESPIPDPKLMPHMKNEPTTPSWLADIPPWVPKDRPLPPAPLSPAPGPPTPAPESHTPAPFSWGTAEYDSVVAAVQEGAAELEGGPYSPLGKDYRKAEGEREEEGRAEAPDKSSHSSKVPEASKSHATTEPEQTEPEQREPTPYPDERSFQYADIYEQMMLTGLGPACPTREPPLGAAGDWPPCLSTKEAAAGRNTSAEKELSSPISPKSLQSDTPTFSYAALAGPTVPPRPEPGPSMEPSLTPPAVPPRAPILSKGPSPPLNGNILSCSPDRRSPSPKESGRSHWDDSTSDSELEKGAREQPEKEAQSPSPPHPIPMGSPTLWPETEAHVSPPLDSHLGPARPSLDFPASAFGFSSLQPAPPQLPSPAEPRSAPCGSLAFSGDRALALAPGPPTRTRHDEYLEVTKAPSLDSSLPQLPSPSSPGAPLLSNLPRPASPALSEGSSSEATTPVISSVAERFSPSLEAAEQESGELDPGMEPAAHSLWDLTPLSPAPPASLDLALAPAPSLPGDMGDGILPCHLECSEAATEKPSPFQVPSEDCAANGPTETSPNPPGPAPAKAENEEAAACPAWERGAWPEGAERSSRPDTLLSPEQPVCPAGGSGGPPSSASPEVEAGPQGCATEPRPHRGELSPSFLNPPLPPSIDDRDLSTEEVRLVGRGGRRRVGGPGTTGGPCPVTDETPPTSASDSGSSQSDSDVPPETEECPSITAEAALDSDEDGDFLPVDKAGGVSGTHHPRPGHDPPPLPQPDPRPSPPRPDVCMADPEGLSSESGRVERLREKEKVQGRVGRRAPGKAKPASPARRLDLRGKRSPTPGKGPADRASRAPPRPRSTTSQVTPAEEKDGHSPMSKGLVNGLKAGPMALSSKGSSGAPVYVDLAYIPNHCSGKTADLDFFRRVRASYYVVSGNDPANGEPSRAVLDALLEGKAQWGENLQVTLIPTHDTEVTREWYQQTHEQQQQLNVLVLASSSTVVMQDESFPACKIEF
# UniProt P27448: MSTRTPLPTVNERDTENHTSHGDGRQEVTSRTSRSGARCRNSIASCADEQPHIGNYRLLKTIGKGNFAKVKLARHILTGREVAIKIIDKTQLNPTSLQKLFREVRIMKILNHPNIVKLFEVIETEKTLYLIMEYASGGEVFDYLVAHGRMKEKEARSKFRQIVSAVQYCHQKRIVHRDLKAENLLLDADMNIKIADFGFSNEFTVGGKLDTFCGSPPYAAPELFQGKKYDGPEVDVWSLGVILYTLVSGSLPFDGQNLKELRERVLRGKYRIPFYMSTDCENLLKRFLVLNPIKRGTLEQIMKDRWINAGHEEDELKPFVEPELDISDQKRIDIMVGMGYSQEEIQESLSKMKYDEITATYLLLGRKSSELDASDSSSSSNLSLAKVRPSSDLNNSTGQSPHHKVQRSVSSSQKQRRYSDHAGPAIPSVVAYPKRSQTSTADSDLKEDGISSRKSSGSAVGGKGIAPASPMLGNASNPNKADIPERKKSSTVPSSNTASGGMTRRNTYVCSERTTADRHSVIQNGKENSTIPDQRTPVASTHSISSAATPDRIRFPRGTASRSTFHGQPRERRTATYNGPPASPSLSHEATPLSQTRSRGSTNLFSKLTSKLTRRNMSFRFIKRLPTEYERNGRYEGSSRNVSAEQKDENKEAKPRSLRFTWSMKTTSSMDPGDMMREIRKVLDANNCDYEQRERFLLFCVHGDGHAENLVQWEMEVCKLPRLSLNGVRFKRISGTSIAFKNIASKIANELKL
# UniProt Q15691: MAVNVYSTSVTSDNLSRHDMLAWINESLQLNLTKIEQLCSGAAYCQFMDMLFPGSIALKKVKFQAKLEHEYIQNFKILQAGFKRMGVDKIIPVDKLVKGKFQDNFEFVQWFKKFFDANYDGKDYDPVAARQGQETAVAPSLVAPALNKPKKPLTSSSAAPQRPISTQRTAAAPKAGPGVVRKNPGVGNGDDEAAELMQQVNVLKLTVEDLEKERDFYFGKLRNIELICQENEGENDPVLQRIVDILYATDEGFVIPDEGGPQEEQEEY
# The list shows a part of the results.
# Assays:
# Assay in all cases: log2 fold change, soluble protein after heating vs DMSO (PISA); higher = thermal stabilisation; K562 lysate, 10 uM; active = over 0.2 and 3.5 SD of the protein, either way, in both replicates (recomputed)
# [1] = compound: C#Cc1cccc(Nc2ncnc3cc(OCCOC)c(OCCOC)cc23)c1 [erlotinib]
# Outline: (§1)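 A 30 min treatment with 10 μM compound was applied to crude K562 extract at 1 mg/mL protein in PBS pH 7.4 with 1 mM MgCl2. Heating for 3 min spanned 48°C-58°C, after which aliquots were pooled, adjusted to 0.5% NP-40 at 4°C and spun at 21,000xg for 90 min. TMTpro 16plex LC-MS/MS of the supernatant, with channel sums equalised, gave values recorded as log-two fold change in thermal stability against solvent controls, from duplicates.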
# [2] = compound: C/C(=N\NC(=O)C1=CC(=CC=C1)S(=O)(=O)N2CCOCC2)/C3=C(C=CC(=C3)Cl)O
# Outline: as §1
# [3] = compound: C1=CC(=CC=C1C2=NC3=C(N2)C=C(C=C3)C(=O)N)OC4=CC=C(C=C4)Cl
# Outline: as §1
# [4] = compound: C1=CC2=C(C=CC(=C2)/C=C\3/C(=O)NC(=NCC4=CC=CS4)S3)N=C1
# Outline: as §1
# [5] = compound: C1=CC2=NC=CN=C2C=C1/C=C/3\C(=O)NC(=O)S3
# Outline: as §1
# [6] = compound: C1=CC=C(C=C1)C2=NC(=C(N2)C3=CC=NC=C3)C4=CC(=C(C=C4)Cl)O
# Outline: as §1
# [7] = compound: C1=CC=C2C(=C1)C3=NNC4=CC=CC(=C43)C2=O
# Outline: as §1
# [8] = compound: C1CCN(C1)C(=O)NC2=CC=CC(=C2)NC3=NC=C(C(=N3)NCCC4=CN=CN4)Br
# Outline: as §1
# [9] = compound: C1CN(CCC1(CC2=CC=C(C=C2)Cl)N)C3=NC=NC4=C3C=CN4
# Outline: as §1
# [10] = compound: C1COCCN1CCN2C3=CC=CC=C3N=C2NC(=O)C4=CC(=CC=C4)[N+](=O)[O-] [IRAK-1-4 Inhibitor I]
# Outline: as §1
Target,log2 fold change [1],log2 fold change [2],log2 fold change [3],log2 fold change [4],log2 fold change [5],log2 fold change [6],log2 fold change [7],log2 fold change [8],log2 fold change [9],log2 fold change [10]
MAGOHB (UniProt Q96A72),inactive: 0.001,inactive: 0.012,inactive: 0.011,inactive: -0.014,inactive: -0.014,inactive: -0.018,inactive: -0.002,inactive: -0.002,inactive: 0.03,inactive: 0
MAP4K2 (UniProt Q12851),inactive: 0.001,inactive: -0.202,inactive: -0.082,inactive: -0.195,inactive: 0.05,inactive: -0.057,inactive: 0.355,inactive: 0.288,inactive: -0.205,inactive: -0.046
MAN2B1 (UniProt O00754),inactive: 0.009,inactive: -0.018,inactive: -0.009,inactive: -0.004,inactive: -0.026,inactive: 0.007,inactive: -0.034,inactive: -0.01,inactive: -0.045,inactive: 0.039
MARS2 (UniProt Q96GW9),inactive: 0.06,inactive: -0.011,inactive: -0.006,inactive: 0.002,inactive: 0.044,inactive: -0.02,inactive: 0.003,inactive: -0.047,inactive: 0.019,inactive: 0.035
MAP2K4 isoform 2 (UniProt P45985),inactive: 0.035,inactive: -0.069,inactive: -0.035,inactive: -0.003,inactive: -0.001,inactive: 0.06,inactive: 0.283,inactive: 0.039,inactive: -0.058,inactive: 0.048
MAEA (UniProt Q7L5Y9),inactive: -0.035,inactive: 0.007,inactive: -0.042,inactive: -0.031,inactive: -0.011,inactive: -0.02,inactive: 0.017,inactive: -0.008,inactive: -0.018,inactive: -0.033
MAST2 (UniProt Q6P0Q8),inactive: 0.044,inactive: -0.054,inactive: 0.142,inactive: 0.003,active: -0.588,inactive: -0.03,inactive: 0.099,inactive: 0.038,inactive: -0.046,inactive: 0.073
LZTR1 (UniProt Q8N653),inactive: 0.051,inactive: 0.099,inactive: -0.018,inactive: -0.015,inactive: 0.022,inactive: -0.005,inactive: -0.071,inactive: 0.066,inactive: 0.106,inactive: 0.08
MAN2C1 isoform 4 (UniProt Q9NTJ4),inactive: 0.014,inactive: 0.113,inactive: 0.049,inactive: -0.055,inactive: 0.035,inactive: 0.047,inactive: 0.057,inactive: 0.036,inactive: 0.061,inactive: 0.02
MAP3K4 (UniProt Q9Y6R4),inactive: 0.051,inactive: -0.027,inactive: -0.026,inactive: 0.011,inactive: -0.014,inactive: 0.018,inactive: 0.105,inactive: 0.051,inactive: -0.101,inactive: -0.013
MARS (UniProt P56192),inactive: 0.041,inactive: -0.021,inactive: 0.015,inactive: 0.029,inactive: -0.004,inactive: 0.013,inactive: -0.019,inactive: 0.003,inactive: 0.002,inactive: 0.002
LYRM7 (UniProt Q5U5X0),inactive: 0.004,inactive: 0.072,inactive: 0.013,inactive: -0.017,inactive: 0.01,inactive: 0.021,inactive: 0.016,inactive: 0.076,inactive: 0.016,inactive: 0.089
MASTL (UniProt Q96GX5),inactive: -0.089,inactive: -0.05,inactive: -0.027,inactive: 0.079,inactive: 0.076,inactive: -0.005,inactive: -0.167,inactive: 0.007,inactive: -0.072,inactive: 0.018
MARCKSL1 (UniProt P49006),inactive: -0.062,inactive: -0.028,inactive: -0.121,inactive: -0.01,inactive: 0,inactive: 0.051,inactive: 0.187,inactive: 0.091,inactive: 0.019,inactive: -0.044
MAD2L2 (UniProt Q9UI95),inactive: 0.173,inactive: 0.004,inactive: 0.209,inactive: -0.035,inactive: 0.035,inactive: -0.09,inactive: -0.101,inactive: 0.094,inactive: 0.102,inactive: 0.004
MAPK12 (UniProt P53778),inactive: 0,inactive: -0.026,inactive: 0.009,inactive: 0.016,inactive: 0.041,inactive: 0.023,inactive: 0.001,inactive: -0.058,inactive: 0.019,inactive: -0.048
MAN2A2 (UniProt P49641),inactive: 0.008,inactive: 0.567,inactive: -0.058,inactive: 0.016,inactive: -0.014,inactive: 0.051,inactive: -0.086,inactive: 0.034,inactive: -0.024,inactive: -0.054
MAIP1 (UniProt Q8WWC4),inactive: 0.02,inactive: -0.025,inactive: -0.069,inactive: 0.04,inactive: 0.012,inactive: -0.007,inactive: -0.016,inactive: 0.033,inactive: 0.039,inactive: 0.001
MANEA (UniProt Q5SRI9),inactive: -0.079,inactive: -0.119,inactive: 0.076,inactive: 0.089,inactive: 0.027,inactive: 0.118,inactive: -0.092,inactive: -0.014,inactive: 0.016,inactive: 0.041
MARK2 (UniProt E9PC69),inactive: 0.095,inactive: 0.132,inactive: 0.026,inactive: 0.056,inactive: -0.017,inactive: 0.024,inactive: -0.246,inactive: -0.18,inactive: -0.084,inactive: -0.076
MAP1A (UniProt P78559),inactive: -0.007,inactive: 0.024,inactive: -0.013,inactive: -0.007,inactive: -0.007,inactive: 0.007,inactive: -0.011,inactive: -0.02,inactive: -0.017,inactive: -0.011
MAPK14 isoform 2 (UniProt Q16539),inactive: -0.004,inactive: 0.011,inactive: -0.049,inactive: 0.016,inactive: 0.017,inactive: 0.633,inactive: -0.045,inactive: -0.02,inactive: 0.059,inactive: -0.015
MARK3 (UniProt P27448),inactive: 0.089,inactive: -0.074,inactive: -0.007,inactive: 0.07,inactive: -0.051,inactive: 0.016,inactive: -0.218,inactive: -0.213,inactive: -0.023,inactive: -0.035
LYPLA1 (UniProt O75608),inactive: 0.01,inactive: 0.029,inactive: -0.034,inactive: -0.014,inactive: -0.038,inactive: 0.039,inactive: 0.03,inactive: -0.008,inactive: 0.011,inactive: 0.019
MANF (UniProt P55145),inactive: -0.004,inactive: 0.05,inactive: -0.013,inactive: 0.029,inactive: 0,inactive: -0.004,inactive: 0.045,inactive: 0.014,inactive: -0.032,inactive: 0.029
LZIC isoform 2 (UniProt Q8WZA0),inactive: -0.017,inactive: 0.062,inactive: -0.002,inactive: -0.006,inactive: -0.016,inactive: 0.019,inactive: -0.014,inactive: 0.024,inactive: -0.011,inactive: -0.019
MAPRE1 (UniProt Q15691),inactive: -0.026,inactive: 0.016,inactive: -0.027,inactive: -0.022,inactive: -0.022,inactive: 0.008,inactive: -0.004,inactive: -0.007,inactive: 0,inactive: -0.004

# Individual results from the list:
# log2 fold change [3] with MAP3K4 (UniProt Q9Y6R4) is entered as inactive: -0.026
# log2 fold change [7] with MARS2 (UniProt Q96GW9) is entered as inactive: 0.003
